Reference: PMC12729082
Read-outs that look alike come from different tables or passages of the source. No constants are given. Whether binding was seen depends on the method and setting. Binding seen in cells or lysates may run through a third protein. These calls come from enrichment with a bait or labelling near it, and not all partners need be listed. For some assays here: No binding means not detected with the bait. Sequences can lack the tags named with a protein. One block for each molecule: values may come before it.

Sequences of proteins named here, by UniProt entry; tags and fusion partners are left off. Residues count along the entry.
UniProt P13501, residues 24-91: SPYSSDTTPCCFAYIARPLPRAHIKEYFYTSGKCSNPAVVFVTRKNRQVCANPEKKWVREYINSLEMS

Tests used:
[1] = biological target: T1, Histone deacetylase HDAC7 (human (endogenous in T24 and UMUC3 bladder cancer cells)) (UniProt Q8WUI4); test: affinity purification with mass spectrometry; co-immunoprecipitation of HDAC7 from BCa cell lysate (20 mM Tris pH 7.5, 150 mM NaCl, 1% Triton X-100), protein A/G agarose beads, overnight at 4 °C, six washes, then mass spectrometry
T1 sequence: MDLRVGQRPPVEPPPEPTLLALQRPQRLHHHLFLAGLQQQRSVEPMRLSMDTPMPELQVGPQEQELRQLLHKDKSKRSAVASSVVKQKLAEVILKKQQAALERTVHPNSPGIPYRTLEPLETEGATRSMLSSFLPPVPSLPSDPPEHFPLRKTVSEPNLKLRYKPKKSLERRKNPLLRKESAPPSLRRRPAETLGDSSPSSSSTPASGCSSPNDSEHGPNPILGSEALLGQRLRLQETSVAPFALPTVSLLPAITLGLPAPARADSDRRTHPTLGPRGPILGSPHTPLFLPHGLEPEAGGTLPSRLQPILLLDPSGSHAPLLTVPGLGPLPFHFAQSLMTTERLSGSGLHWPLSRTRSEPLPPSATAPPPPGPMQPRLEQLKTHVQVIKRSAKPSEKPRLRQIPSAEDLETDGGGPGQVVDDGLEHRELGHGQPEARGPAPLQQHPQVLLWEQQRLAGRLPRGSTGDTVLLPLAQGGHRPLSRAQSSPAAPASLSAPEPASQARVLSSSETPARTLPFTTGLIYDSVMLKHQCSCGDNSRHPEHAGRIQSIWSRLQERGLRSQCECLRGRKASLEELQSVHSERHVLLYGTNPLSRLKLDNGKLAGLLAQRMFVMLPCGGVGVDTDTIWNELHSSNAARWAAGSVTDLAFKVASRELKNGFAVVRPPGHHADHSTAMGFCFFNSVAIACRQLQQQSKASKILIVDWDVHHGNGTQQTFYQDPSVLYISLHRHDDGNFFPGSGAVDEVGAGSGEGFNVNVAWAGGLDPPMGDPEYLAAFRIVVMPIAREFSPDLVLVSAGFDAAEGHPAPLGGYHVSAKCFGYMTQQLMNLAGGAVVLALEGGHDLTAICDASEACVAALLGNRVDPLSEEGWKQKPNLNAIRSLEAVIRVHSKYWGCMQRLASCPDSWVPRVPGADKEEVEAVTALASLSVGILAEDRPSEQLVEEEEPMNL

[2] = biological target: T1, Histone deacetylase HDAC7 (human (endogenous in T24 and UMUC3 bladder cancer cells)); test: as above; remark: listed apart in the source

- binding [1]: no binding
Molecule: C-C Motif chemokine ligand 5 (CCL5) (from UniProt P13501 24-91)

- binding [2]: binds
B1: Serine and arginine rich splicing factor 7 (SRSF7) (protein, UniProt Q16629 1-238)
chain: MSRYGRYGGETKVYVGNLGTGAGKGELERAFSYYGPLRTVWIARNPPGFAFVEFEDPRDAEDAVRGLDGKVICGSRVRVELSTGMPRRSRFDRPPARRPFDPNDRCYECGEKGHYAYDCHRYSRRRRSRSRSRSHSRSRGRRYSRSRSRSRGRRSRSASPRRSRSISLRRSRSASLRRSRSGSIKGSRYFQSPSRSRSRSRSISRPRSSRSKSRSPSPKRSRSPSGSPRRSASPERMD
